The list shows a part of the results.
Columns and labels:
Assay in all cases: glycan array binding signal (z-score within array); higher = stronger binding
Details in all cases: glycan notation: IUPAC condensed, linker removed
[1] = molecular target: Neu5Ac(a2-3)Gal(b1-3)GalNAc
Method in brief: (§1)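 Negative Z-scores can be read as non-binding. The Z-score is calculated within each array and then averaged across arrays of one protein sequence at different concentrations or buffers and across linkers. Arrays, 3228 in all, were curated from the Consortium for Functional Glycomics database and kept only where the protein sequence was available.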

[2] = molecular target: Neu5Ac(a2-3)Gal(b1-3)GalNAc(b1-3)Gal(a1-4)Gal(b1-4)Glc
Method in brief: as §1

[3] = molecular target: Neu5Ac(a2-3)Gal(b1-3)GalNAc(b1-4)Gal(b1-4)Glc
Method in brief: as §1

[4] = molecular target: Neu5Ac(a2-3)Gal(b1-3)GalNAc(b1-4)[Neu5Ac(a2-3)]Gal(b1-4)Glc
Method in brief: as §1

[5] = molecular target: Neu5Ac(a2-3)Gal(b1-3)GalNAc(b1-4)[Neu5Ac(a2-8)Neu5Ac(a2-3)]Gal(b1-4)Glc
Method in brief: as §1

[6] = molecular target: Neu5Ac(a2-3)Gal(b1-3)GalNAc6S
Method in brief: as §1

[7] = molecular target: Neu5Ac(a2-3)Gal(b1-3)GlcNAc
Method in brief: as §1

[8] = molecular target: Neu5Ac(a2-3)Gal(b1-3)GlcNAc(b1-2)Man
Method in brief: as §1

[9] = molecular target: Neu5Ac(a2-3)Gal(b1-3)GlcNAc(b1-2)Man(a1-3)[GlcNAc(b1-4)][Neu5Ac(a2-3)Gal(b1-3)GlcNAc(b1-2)Man(a1-6)]Man(b1-4)GlcNAc(b1-4)GlcNAc
Method in brief: as §1

[10] = molecular target: Neu5Ac(a2-3)Gal(b1-3)GlcNAc(b1-2)Man(a1-3)[Neu5Ac(a2-3)Gal(b1-3)GlcNAc(b1-2)Man(a1-6)]Man(b1-4)GlcNAc(b1-4)GlcNAc
Method in brief: as §1

[11] = molecular target: Neu5Ac(a2-3)Gal(b1-3)GlcNAc(b1-2)[Neu5Ac(a2-3)Gal(b1-3)GlcNAc(b1-4)]Man(a1-6)[Neu5Ac(a2-3)Gal(b1-3)GlcNAc(b1-2)Man(a1-3)]Man(b1-4)GlcNAc(b1-4)GlcNAc
Method in brief: as §1

[12] = molecular target: Neu5Ac(a2-3)Gal(b1-3)GlcNAc(b1-3)Gal(b1-3)GlcNAc
Method in brief: as §1

[13] = molecular target: Neu5Ac(a2-3)Gal(b1-3)GlcNAc(b1-3)Gal(b1-4)GlcNAc
Method in brief: as §1

[14] = molecular target: Neu5Ac(a2-3)Gal(b1-3)GlcNAc(b1-3)GalNAc
Method in brief: as §1

[15] = molecular target: Neu5Ac(a2-3)Gal(b1-3)GlcNAc(b1-6)GalNAc
Method in brief: as §1

[16] = molecular target: Neu5Ac(a2-3)Gal(b1-3)GlcNAc6S
Method in brief: as §1

[17] = molecular target: Neu5Ac(a2-3)Gal(b1-3)[Fuc(a1-4)]GlcNAc
Method in brief: as §1

[18] = molecular target: Neu5Ac(a2-3)Gal(b1-3)[Fuc(a1-4)]GlcNAc(b1-3)Gal(b1-3)[Fuc(a1-4)]GlcNAc
Method in brief: as §1

[19] = molecular target: Neu5Ac(a2-3)Gal(b1-3)[Fuc(a1-4)]GlcNAc(b1-3)Gal(b1-4)[Fuc(a1-3)]GlcNAc
Method in brief: as §1

[20] = molecular target: Neu5Ac(a2-3)Gal(b1-3)[GlcNAc(b1-6)]GalNAc
Method in brief: as §1

[21] = molecular target: Neu5Ac(a2-3)Gal(b1-3)[Neu5Ac(a2-6)]GalNAc
Method in brief: as §1

[22] = molecular target: Neu5Ac(a2-3)Gal(b1-3)[Neu5Ac(a2-6)]GlcNAc(b1-3)[Fuc(a1-3)[Gal(b1-4)]GlcNAc(b1-6)]Gal(b1-4)Glc
Method in brief: as §1

[23] = molecular target: Neu5Ac(a2-3)Gal(b1-3)]Neu5Ac(a2-3)Gal(b1-4)]GlcNAc
Method in brief: as §1

Neu5Ac(a2-3)Gal(b1-4)Glc = molecular target: Neu5Ac(a2-3)Gal(b1-4)Glc
Method in brief: as §1

[24] = molecular target: Neu5Ac(a2-3)Gal(b1-4)GlcNAc
Method in brief: as §1

[25] = molecular target: Neu5Ac(a2-3)Gal(b1-4)GlcNAc(b1-2)Man
Method in brief: as §1

[26] = molecular target: Neu5Ac(a2-3)Gal(b1-4)GlcNAc(b1-2)Man(a1-3)[GlcNAc(b1-4)][Neu5Ac(a2-3)Gal(b1-4)GlcNAc(b1-2)Man(a1-6)]Man(b1-4)GlcNAc(b1-4)GlcNAc
Method in brief: as §1

[27] = molecular target: Neu5Ac(a2-3)Gal(b1-4)GlcNAc(b1-2)Man(a1-3)[Neu5Ac(a2-3)Gal(b1-4)GlcNAc(b1-2)Man(a1-6)]Man(b1-4)GlcNAc(b1-4)GlcNAc
Method in brief: as §1

[28] = molecular target: Neu5Ac(a2-3)Gal(b1-4)GlcNAc(b1-2)Man(a1-3)[Neu5Ac(a2-3)Gal(b1-4)GlcNAc(b1-2)Man(a1-6)]Man(b1-4)GlcNAc(b1-4)[Fuc(a1-6)]GlcNAc
Method in brief: as §1

[29] = molecular target: Neu5Ac(a2-3)Gal(b1-4)GlcNAc(b1-2)Man(a1-3)[Neu5Ac(a2-6)Gal(b1-4)GlcNAc(b1-2)Man(a1-6)]Man(b1-4)GlcNAc(b1-4)GlcNAc
Method in brief: as §1

[30] = molecular target: Neu5Ac(a2-3)Gal(b1-4)GlcNAc(b1-2)[Neu5Ac(a2-3)Gal(b1-4)GlcNAc(b1-4)]Man(a1-3)[GlcNAc(b1-4)][Neu5Ac(a2-3)Gal(b1-4)GlcNAc(b1-2)[Neu5Ac(a2-3)Gal(b1-4)GlcNAc(b1-6)]Man(a1-6)]Man(b1-4)GlcNAc(b1-4)GlcNAc
Method in brief: as §1

[31] = molecular target: Neu5Ac(a2-3)Gal(b1-4)GlcNAc(b1-2)[Neu5Ac(a2-3)Gal(b1-4)GlcNAc(b1-4)]Man(a1-3)[GlcNAc(b1-4)][Neu5Ac(a2-3)Gal(b1-4)GlcNAc(b1-4)Man(a1-6)]Man(b1-4)GlcNAc(b1-4)GlcNAc
Method in brief: as §1

[32] = molecular target: Neu5Ac(a2-3)Gal(b1-4)GlcNAc(b1-2)[Neu5Ac(a2-3)Gal(b1-4)GlcNAc(b1-6)]Man(a1-6)[Neu5Ac(a2-3)Gal(b1-4)GlcNAc(b1-2)Man(a1-3)][GlcNAc(b1-4)]Man(b1-4)GlcNAc(b1-4)GlcNAc
Method in brief: as §1

[33] = molecular target: Neu5Ac(a2-3)Gal(b1-4)GlcNAc(b1-3)Gal
Method in brief: as §1

[34] = molecular target: Neu5Ac(a2-3)Gal(b1-4)GlcNAc(b1-3)Gal(b1-3)GlcNAc
Method in brief: as §1

[35] = molecular target: Neu5Ac(a2-3)Gal(b1-4)GlcNAc(b1-3)Gal(b1-4)GlcNAc
Method in brief: as §1

[36] = molecular target: Neu5Ac(a2-3)Gal(b1-4)GlcNAc(b1-3)Gal(b1-4)GlcNAc(b1-2)Man(a1-3)[Neu5Ac(a2-3)Gal(b1-4)GlcNAc(b1-3)Gal(b1-4)GlcNAc(b1-2)Man(a1-6)]Man(b1-4)GlcNAc(b1-4)GlcNAc
Method in brief: as §1

[37] = molecular target: Neu5Ac(a2-3)Gal(b1-4)GlcNAc(b1-3)Gal(b1-4)GlcNAc(b1-3)Gal(b1-4)GlcNAc
Method in brief: as §1

[38] = molecular target: Neu5Ac(a2-3)Gal(b1-4)GlcNAc(b1-3)Gal(b1-4)GlcNAc(b1-3)Gal(b1-4)GlcNAc(b1-2)Man(a1-3)[Neu5Ac(a2-3)Gal(b1-4)GlcNAc(b1-3)Gal(b1-4)GlcNAc(b1-3)Gal(b1-4)GlcNAc(b1-2)Man(a1-6)]GalNAc
Method in brief: as §1

[39] = molecular target: Neu5Ac(a2-3)Gal(b1-4)GlcNAc(b1-3)Gal(b1-4)GlcNAc(b1-3)GalNAc
Method in brief: as §1

[40] = molecular target: Neu5Ac(a2-3)Gal(b1-4)GlcNAc(b1-3)Gal(b1-4)GlcNAc(b1-3)[Neu5Ac(a2-3)Gal(b1-4)GlcNAc(b1-3)Gal(b1-4)GlcNAc(b1-6)]GalNAc
Method in brief: as §1

[41] = molecular target: Neu5Ac(a2-3)Gal(b1-4)GlcNAc(b1-3)Gal(b1-4)GlcNAc(b1-6)[Gal(b1-3)]GalNAc
Method in brief: as §1

[42] = molecular target: Neu5Ac(a2-3)Gal(b1-4)GlcNAc(b1-3)Gal(b1-4)[Fuc(a1-3)]GlcNAc
Method in brief: as §1

[43] = molecular target: Neu5Ac(a2-3)Gal(b1-4)GlcNAc(b1-3)GalNAc
Method in brief: as §1

[44] = molecular target: Neu5Ac(a2-3)Gal(b1-4)GlcNAc(b1-3)[Neu5Ac(a2-3)Gal(b1-4)GlcNAc(b1-6)]GalNAc
Method in brief: as §1

B1: OS9 (Arabidopsis thaliana) (protein)
chain: MRGSHHHHHHGMASMTGGQQMGRDLYDDDDKSRLQIFPAHLVGTFSRNNREPKYKIEFLPEDSPFHPGDNLESMVMLDKHGNRFLCYLPKEEKATSGWTSSQQNISTVMMETQQLVKLKTPDELLQPLSEKCLFRQEGWWSYEFCHQKYVRQLHVEDENKIVQEFFLGTFDPEATAAFNQTVSDASTDASQRYHSHVYTNGTTCDLTGSPREVEVRFVCAETRAMVTSITELSTCKYALTVQCPTLCKHPLFQLEKPVSHTIHCNAIPVEEDATRNKEEQAVDESPKMIADS
glycan array binding signal (z-score) [1]: -0.107
glycan array binding signal (z-score) [2]: -0.037
glycan array binding signal (z-score) [3]: -1.9
glycan array binding signal (z-score) [4]: -0.741
glycan array binding signal (z-score) [5]: -0.334
glycan array binding signal (z-score) [6]: -0.934
glycan array binding signal (z-score) [7]: -0.018
glycan array binding signal (z-score) [8]: 0.959
glycan array binding signal (z-score) [9]: -0.217
glycan array binding signal (z-score) [10]: -0.881
glycan array binding signal (z-score) [11]: -1.29
glycan array binding signal (z-score) [12]: -0.798
glycan array binding signal (z-score) [13]: 0.479
glycan array binding signal (z-score) [14]: 0.474
glycan array binding signal (z-score) [15]: 0.504
glycan array binding signal (z-score) [16]: -0.171
glycan array binding signal (z-score) [17]: -0.289
glycan array binding signal (z-score) [18]: 2
glycan array binding signal (z-score) [19]: 1.08
glycan array binding signal (z-score) [20]: 1.3
glycan array binding signal (z-score) [21]: -0.173
glycan array binding signal (z-score) [22]: -0.879
glycan array binding signal (z-score) [23]: -1.09
glycan array binding signal (z-score) (Neu5Ac(a2-3)Gal(b1-4)Glc): 0.386
glycan array binding signal (z-score) [24]: 0.28
glycan array binding signal (z-score) [25]: 0.588
glycan array binding signal (z-score) [26]: 0.725
glycan array binding signal (z-score) [27]: 1.24
glycan array binding signal (z-score) [28]: -0.563
glycan array binding signal (z-score) [29]: 0.387
glycan array binding signal (z-score) [30]: 1.26
glycan array binding signal (z-score) [31]: -0.879
glycan array binding signal (z-score) [32]: -0.513
glycan array binding signal (z-score) [33]: -0.825
glycan array binding signal (z-score) [34]: -0.233
glycan array binding signal (z-score) [35]: 1.85
glycan array binding signal (z-score) [36]: -0.58
glycan array binding signal (z-score) [37]: 0.726
glycan array binding signal (z-score) [38]: -0.723
glycan array binding signal (z-score) [39]: -1.03
glycan array binding signal (z-score) [40]: -0.357
glycan array binding signal (z-score) [41]: -0.084
glycan array binding signal (z-score) [42]: 0.952
glycan array binding signal (z-score) [43]: 1.69
glycan array binding signal (z-score) [44]: 0.13

From the supplement of paper PMC8728848
